# In the supplement of paper PMC8104966:
# Values joined by “and” are separate entries in the source; they are usually repeats but may differ in a detail not shown here. Identical values can stand only once. This is one part of the list. This data set is noisy: repeats of one test often differ as much as different tests do.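 U2OS cells expressing ACE2 were combined with U2OS cells expressing full-length spike, and imaging quantified fusion as the fraction of nuclei displaying both cell types' fluorescent markers. Non-toxic compounds with a fusion z-score under -3, i.e., over three standard deviations below the plate's DMSO wells, are called inhibitory hits.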
# Tested on: U2OS ACE2 x SARS-CoV-2 spike co-culture
# Test: cell-cell fusion (fraction fused) z-score vs plate DMSO control; higher = more fusion
# Settings: 30 µM; 5 h; toxicity class: non-toxic, passed QC
row,SMILES,cell-cell fusion (z-score)
1,C[C@]12CC[C@H](O)C[C@H]1CCC1C2CC[C@]2(C)[C@@H](C3=CC(=O)OC3)[C@@H](O)C[C@]12O (some centres undefined),inactive: 1.4
2,C[C@@H](c1nc(-c2ccc(C#N)cc2)cs1)[C@](O)(Cn1cncn1)c1cc(F)ccc1F [Isavuconazole],inactive: -0.509
3,Cc1c[nH]cn1,inactive: 1.77
4,CS(C)(=O)=O,inactive: 1.69
5,CCN1CCC[C@H]1CNC(=O)c1cc(S(N)(=O)=O)ccc1OC [(-)-Sulpiride],inactive: 0.557
6,C[n+]1cccc(C(=O)[O-])c1,inactive: 1.77
7,CC(=O)OC/C=C(\C)CC/C=C(\C)CC/C=C(\C)CC/C=C(\C)CC/C=C(\C)CC/C=C(\C)CC/C=C(\C)CC/C=C(\C)CCC=C(C)C,inactive: 2.11
8,CN(C)N=Nc1nc[nH]c1C(N)=O [Dacarbazine],inactive: 2.42
9,O=c1[nH]cnc2c1ncn2[C@H]1CC[C@@H](CO)O1 [Didanosine],inactive: 1.48
10,Cl.Cl.O.O=c1ccc2[nH]cc(C3=CCNCC3)c2[nH]1,inactive: 2.24 and inactive: 4
11,O=C1/C(=C/c2ccsc2)CC/C1=C\c1cccs1,inactive: 1.26
12,CCOC(=O)[C@H](C)C[C@@H](Cc1ccc(-c2ccccc2)cc1)NC(=O)CCC(=O)O,inactive: 0.829
13,CN1CCN(C2=Nc3cc(Cl)ccc3Nc3ccccc32)CC1 [Clozapine],inactive: 1.18
14,CCC(=O)O[C@H]1[C@H](O[C@@H]2[C@@H](C)[C@H](O[C@H]3C[C@@](C)(OC)[C@@H](O)[C@H](C)O3)[C@@H](C)C(=O)O[C@H](CC)[C@@](C)(O)[C@H](O)[C@@H](C)C(=O)[C@H](C)C[C@@]2(C)O)O[C@H](C)C[C@@H]1N(C)C.CCCCCCCCCCCCOS(=O)(=O)O,active: -5.44
15,NCC[C@@H](O)C(=O)N[C@@H]1C[C@H](N)[C@@H](O[C@H]2O[C@H](CN)[C@@H](O)[C@H](O)[C@H]2O)[C@H](O)[C@H]1O[C@H]1O[C@H](CO)[C@@H](O)[C@H](N)C1O.O (some centres undefined),inactive: 2.78
16,CC1CCC(C(C)C)C(O)C1 (racemic) [DL-Menthol],inactive: 3.36
17,CN1Cc2c(N)cccc2C(c2ccccc2)C1.O=C(O)/C=C\C(=O)O (centres undefined) [Nomifensine maleate],inactive: 2.16
18,CN1Cc2c(N)cccc2C(c2ccccc2)C1.O=C(O)/C=C\C(=O)O (centres undefined),inactive: 1.85
19,Cl.c1ccc2c(CC3=NCCN3)cccc2c1 [Naphazoline hydrochloride],inactive: 1.88
20,CCC1(O)CC2CN(CCc3c([nH]c4ccccc34)[C@@](C(=O)OC)(c3cc4c(cc3OC)N(C=O)C3[C@]45CCN4CC=C[C@@](CC)([C@@H](OC(C)=O)[C@]3(O)C(=O)OC)[C@H]45)C2)C1.O=S(=O)(O)O (some centres undefined) [Vincristine sulfate],inactive: 1.1
21,CC(NC(=O)c1ccccc1/N=C/c1c(O)ccc2ccccc12)c1ccccc1 (centres undefined) [Sirtinol],inactive: 1.13
22,CN(CCN1CCC(OC(=O)Nc2ccccc2-c2ccccc2)CC1)C(=O)c1ccc(CN2CCC(C(N)=O)CC2)cc1 [Revefenacin],inactive: 1.62
23,O=C(O)c1cc2ccccc2c(Cc2c(O)c(C(=O)O)cc3ccccc23)c1O.OCCOCCN1CCN(C(c2ccccc2)c2ccc(Cl)cc2)CC1,inactive: 0.375

row,SMILES,cell-cell fusion (z-score)
1,CCc1ccc(CCOc2ccc(CC3SC(=O)NC3=O)cc2)nc1 (centres undefined) [Pioglitazone (Actos)],inactive: 1.13
2,CC(=O)O[C@@]1(C(C)=O)CC[C@H]2[C@@H]3C[C@H](C)C4=CC(=O)CC[C@]4(C)[C@@H]3CC[C@@]21C [Medroxyprogesterone acetate],inactive: 0.581
3,C[C@]12CC[C@H](O)CC1=CC[C@@H]1[C@H]2CC[C@]2(C)C(c3cccnc3)=CC[C@@H]12 [Abiraterone (CB-7598)],inactive: 2.12
4,CC(C)CCCC(C)C1CCC2C3CC[C@H]4CC(=O)CC[C@]4(C)C3CC[C@]12C (some centres undefined),inactive: 1.79
5,CC(C)c1ccc(COC(=O)N2CCC[C@@H](c3cccc(OC(C)(C)C(=O)O)c3)C2)cc1,inactive: 3.43
6,C[C@@]1(c2nc3c(C(N)=O)cccc3[nH]2)CCCN1 [ABT-888 (Veliparib)],inactive: 1.51
7,COc1cc2c(N3CCN(C(=O)Nc4ccc(OC(C)C)cc4)CC3)ncnc2cc1OCCCN1CCCCC1 [Tandutinib (MLN518)],inactive: 3.05
8,Nc1nc2c(ncn2COC(CO)CO)c(=O)[nH]1,inactive: 1.3
9,Nc1nc2c(ncn2COC(CO)CO)c(=O)[nH]1 [Ganciclovir],inactive: 3.29
10,OC[C@H]1O[C@@H](O[C@@H]2[C@@H](CO)O[C@](O)(CO)[C@H]2O)[C@H](O)[C@@H](O)[C@H]1O,inactive: 0.0812
11,COc1ccc2[nH]cc(CCNC(C)=O)c2c1,inactive: 2.42
12,COc1ccc2[nH]cc(CCNC(C)=O)c2c1 [Melatonin],inactive: 2.32
13,CNCCC(Oc1ccc(C(F)(F)F)cc1)c1ccccc1.Cl (centres undefined) [Fluoxetine hydrochloride],active: -4.6
14,Cl.NCCNS(=O)(=O)c1cccc2c(Cl)cccc12 [A3 hydrochloride],inactive: -0.863
15,COc1c2occc2c(OC)c2c(=O)cc(C)oc12,inactive: 1.52
16,CC1=C2C(=CO[C@H](C)[C@H]2C)C(O)=C(C(=O)O)C1=O,inactive: 2.17
17,CN(C)c1nc(N(C)C)nc(N(C)C)n1 [Altretamine],inactive: 2.52
18,OCCN(CCO)c1nc(N2CCCCC2)c2nc(N(CCO)CCO)nc(N3CCCCC3)c2n1 [Dypyridamole],inactive: 2.18
19,O=C(Oc1ccc([N+](=O)[O-])cc1)N1CCC(C(O)(c2ccc3c(c2)OCO3)c2ccc3c(c2)OCO3)CC1,inactive: 2.55
20,CCc1ccc2c(O)c3c(cc2c1C(=O)OC)C(=O)c1c(O)ccc(O)c1C3=O,inactive: 2.2
21,CC(NCCc1ccc(O)cc1)C(O)c1ccc(O)cc1.Cl (centres undefined),inactive: -0.441
22,Cl.NCCc1c[nH]c2ccccc12 [Tryptamine hydrochloride],inactive: 1.49
23,C=CC[N+]1([C@H]2C[C@H]3[C@@H]4CC[C@H]5C[C@H](O)[C@@H](N6CCOCC6)C[C@]5(C)[C@H]4CC[C@]3(C)[C@H]2OC(C)=O)CCCC1.[Br-] [Rocuronium bromide],inactive: 2.71

row,SMILES,cell-cell fusion (z-score)
1,O=c1onc2cnc3ccccc3n12,inactive: 3.35
2,Nc1cccc2c1C(=O)N(C1CCC(=O)NC1=O)C2=O (centres undefined) [Pomalidomide],inactive: 1.38
3,C[C@@H]1O[C@@H](O[C@H]2[C@H](Oc3cc(O)c4c(=O)cc(-c5ccc(O)cc5)oc4c3)O[C@H](CO)[C@@H](O)[C@@H]2O)[C@H](O)[C@H](O)[C@H]1O,inactive: 1.6
4,Cc1ccc(C(=O)N(CCCN)[C@@H](c2nc3cc(Cl)ccc3c(=O)n2Cc2ccccc2)C(C)C)cc1,active: -3.16
5,Cn1c(=O)c2c(ncn2C)n(C)c1=O,inactive: 1.19
6,Cn1c(=O)c2c(ncn2C)n(C)c1=O [Caffeine],inactive: 1.16
7,C=C(C)[C@H]1Cc2c(ccc3c2O[C@@H]2COc4cc(OC)c(OC)cc4[C@@H]2C3=O)O1 [Rotenone],inactive: -0.311
8,NNC(=O)c1ccncc1 [Isoniazid],inactive: 2.33
9,CC(C)c1nc(CN(C)C(=O)N[C@H](C(=O)N[C@@H](Cc2ccccc2)C[C@H](O)[C@H](Cc2ccccc2)NC(=O)OCc2cncs2)C(C)C)cs1 [Ritonavir],inactive: 3.5
10,O=c1c(O)c(-c2ccc(O)c(O)c2)oc2c(O)c(O)cc(O)c12,inactive: 1.55
11,NC[C@H](O)c1ccc(O)c(O)c1,inactive: -0.495
12,O=C(N[C@@H](Cc1ccccc1)C(=O)CCl)OCc1ccccc1 [Z-L-Phe chloromethyl ketone],inactive: 1.57
13,CC(=O)CC1CCCCN1.Cl (centres undefined),inactive: 1.98
14,O.O=C(O)[C@@H]1[C@H]2C[C@H]3c4[nH]c5ccccc5c4CCN3C[C@@H]2CC[C@@H]1O,inactive: 2.53
15,Cl.NCCCCC(=O)O,inactive: 3.48
16,Cl.NCCCCC(=O)O [5-Aminovaleric acid hydrochloride],inactive: 1.93
17,CC1=C(/C=C/C(C)=C/C=C/C(C)=C/C=C/C=C(C)/C=C/C=C(C)/C=C/C2=C(C)CCCC2(C)C)C(C)(C)CCC1 [Beta-Carotene],inactive: 2.58
18,N=C(N)NN.N=C(N)NN.O=S(=O)(O)O [Aminoguanidine hemisulfate],inactive: 1.55
19,Nc1nc(F)nc2c1ncn2[C@@H]1O[C@H](COP(=O)(O)O)[C@@H](O)[C@@H]1O,inactive: 4.18
20,CC(C)NCC(O)c1cc(O)cc(O)c1.CC(C)NCC(O)c1cc(O)cc(O)c1.O=S(=O)(O)O (centres undefined) [Orciprenaline sulfate],inactive: -0.423
21,COP(=O)(OC)C(O)C(Cl)(Cl)Cl (centres undefined),inactive: 1.49
22,COc1ccc2oc(-c3ccccc3OC)cc(=O)c2c1,inactive: 2.9
23,Cl.NCC1(CC(=O)O)CCCCC1 [Gabapentin HCl],inactive: 1.9
